We go through 1 substance from PMC4695189.

Sequences of proteins named here, by UniProt entry; tags and fusion partners are left off.
UniProt Q8NFU7: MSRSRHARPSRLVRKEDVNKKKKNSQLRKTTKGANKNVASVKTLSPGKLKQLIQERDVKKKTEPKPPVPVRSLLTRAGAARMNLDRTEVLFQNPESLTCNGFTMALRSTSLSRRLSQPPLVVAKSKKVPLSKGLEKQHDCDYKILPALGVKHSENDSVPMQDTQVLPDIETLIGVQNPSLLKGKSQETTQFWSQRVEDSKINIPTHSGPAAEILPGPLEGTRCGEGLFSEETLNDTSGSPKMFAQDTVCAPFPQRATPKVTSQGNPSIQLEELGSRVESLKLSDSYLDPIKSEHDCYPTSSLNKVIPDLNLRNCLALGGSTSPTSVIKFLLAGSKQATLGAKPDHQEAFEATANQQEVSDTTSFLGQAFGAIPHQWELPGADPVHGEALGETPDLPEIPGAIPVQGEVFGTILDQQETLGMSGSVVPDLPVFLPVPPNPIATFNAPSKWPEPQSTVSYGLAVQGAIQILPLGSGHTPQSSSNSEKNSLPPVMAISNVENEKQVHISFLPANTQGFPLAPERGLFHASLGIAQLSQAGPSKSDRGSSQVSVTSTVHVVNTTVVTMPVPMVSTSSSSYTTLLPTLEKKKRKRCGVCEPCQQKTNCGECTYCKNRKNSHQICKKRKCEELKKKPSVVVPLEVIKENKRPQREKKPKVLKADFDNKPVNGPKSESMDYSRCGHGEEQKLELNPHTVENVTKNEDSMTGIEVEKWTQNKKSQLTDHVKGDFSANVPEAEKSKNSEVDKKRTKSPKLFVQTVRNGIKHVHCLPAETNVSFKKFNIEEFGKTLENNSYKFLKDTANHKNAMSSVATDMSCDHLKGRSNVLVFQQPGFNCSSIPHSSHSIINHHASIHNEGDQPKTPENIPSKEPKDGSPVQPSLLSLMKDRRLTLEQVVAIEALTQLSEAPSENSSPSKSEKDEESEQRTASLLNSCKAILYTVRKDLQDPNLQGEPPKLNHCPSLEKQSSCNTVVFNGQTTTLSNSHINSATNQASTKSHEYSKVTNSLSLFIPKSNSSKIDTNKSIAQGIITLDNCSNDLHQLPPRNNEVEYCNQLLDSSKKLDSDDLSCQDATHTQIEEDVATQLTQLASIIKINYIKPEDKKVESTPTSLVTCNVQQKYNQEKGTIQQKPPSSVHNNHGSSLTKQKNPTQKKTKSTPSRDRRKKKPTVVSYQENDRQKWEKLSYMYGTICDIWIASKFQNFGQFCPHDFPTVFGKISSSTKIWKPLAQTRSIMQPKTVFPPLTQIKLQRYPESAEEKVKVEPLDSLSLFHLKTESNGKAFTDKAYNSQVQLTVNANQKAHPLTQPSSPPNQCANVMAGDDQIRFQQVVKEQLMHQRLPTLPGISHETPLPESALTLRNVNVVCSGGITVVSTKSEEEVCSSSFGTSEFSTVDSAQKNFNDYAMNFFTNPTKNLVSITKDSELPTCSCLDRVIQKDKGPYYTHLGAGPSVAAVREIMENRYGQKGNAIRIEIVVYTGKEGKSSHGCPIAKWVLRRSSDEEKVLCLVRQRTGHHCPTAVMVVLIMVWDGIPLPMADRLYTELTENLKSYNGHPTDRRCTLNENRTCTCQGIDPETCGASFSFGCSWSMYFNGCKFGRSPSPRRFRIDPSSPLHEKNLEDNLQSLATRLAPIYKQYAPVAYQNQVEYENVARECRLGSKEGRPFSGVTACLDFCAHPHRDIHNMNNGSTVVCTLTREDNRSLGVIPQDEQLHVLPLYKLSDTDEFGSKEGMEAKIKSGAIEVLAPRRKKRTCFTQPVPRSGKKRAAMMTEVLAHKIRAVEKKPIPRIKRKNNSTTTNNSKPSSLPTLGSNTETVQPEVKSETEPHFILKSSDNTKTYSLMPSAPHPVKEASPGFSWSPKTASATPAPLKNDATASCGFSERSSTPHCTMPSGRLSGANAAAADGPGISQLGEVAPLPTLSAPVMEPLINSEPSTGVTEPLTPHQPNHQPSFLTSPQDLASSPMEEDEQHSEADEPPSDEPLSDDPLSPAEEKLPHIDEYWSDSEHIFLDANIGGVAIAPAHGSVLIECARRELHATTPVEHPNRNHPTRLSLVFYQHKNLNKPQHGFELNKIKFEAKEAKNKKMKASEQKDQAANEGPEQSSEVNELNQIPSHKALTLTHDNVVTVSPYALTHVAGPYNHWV
UniProt P09874: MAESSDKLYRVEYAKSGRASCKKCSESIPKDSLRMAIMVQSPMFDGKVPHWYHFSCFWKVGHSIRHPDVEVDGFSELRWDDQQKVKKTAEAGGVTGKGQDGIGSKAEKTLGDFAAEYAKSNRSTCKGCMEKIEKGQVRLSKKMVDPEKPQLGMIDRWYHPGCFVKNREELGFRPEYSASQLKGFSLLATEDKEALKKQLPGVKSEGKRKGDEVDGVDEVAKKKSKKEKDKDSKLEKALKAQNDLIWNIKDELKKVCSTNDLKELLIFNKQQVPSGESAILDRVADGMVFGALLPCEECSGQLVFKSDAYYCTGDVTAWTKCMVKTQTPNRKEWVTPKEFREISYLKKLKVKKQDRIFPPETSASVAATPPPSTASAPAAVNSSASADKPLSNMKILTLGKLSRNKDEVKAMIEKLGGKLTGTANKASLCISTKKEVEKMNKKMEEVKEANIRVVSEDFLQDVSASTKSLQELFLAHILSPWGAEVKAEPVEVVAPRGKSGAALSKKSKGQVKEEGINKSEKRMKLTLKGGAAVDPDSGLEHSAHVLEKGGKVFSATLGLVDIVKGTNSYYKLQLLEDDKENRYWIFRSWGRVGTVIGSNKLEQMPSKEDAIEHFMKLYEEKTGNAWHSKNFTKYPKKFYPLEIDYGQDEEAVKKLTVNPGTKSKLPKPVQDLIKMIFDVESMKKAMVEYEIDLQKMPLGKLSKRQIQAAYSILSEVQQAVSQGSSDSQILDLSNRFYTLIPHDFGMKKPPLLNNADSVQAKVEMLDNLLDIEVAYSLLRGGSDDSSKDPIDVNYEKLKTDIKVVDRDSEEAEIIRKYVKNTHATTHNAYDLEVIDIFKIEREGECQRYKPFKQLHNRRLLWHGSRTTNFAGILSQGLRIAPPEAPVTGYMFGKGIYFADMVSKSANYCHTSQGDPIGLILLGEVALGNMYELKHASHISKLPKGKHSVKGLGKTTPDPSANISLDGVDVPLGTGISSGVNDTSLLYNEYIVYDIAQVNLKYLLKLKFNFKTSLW

The test has as its target TET1 protein (Ten-eleven-translocation 1) (human (endogenous in HEK293T)) (UniProt Q8NFU7). Description: co-IP; anti TET1 or anti PARP-1 antibodies on nuclear lysates of HEK293T treated or not with ABT-888 for 6 hrs; 150 mM NaCl, 0.5% NP-40, 1% glycerol, 4°C; Western blot. In general terms: In western blotting, separated proteins are transferred to a membrane and probed.

These are yes or no findings as the source states them, for the method shown. In cells and extracts the contact can be indirect. Some entries that bind do so weakly or less than the wild type.

In the case of “PARP-1/ARTD1 (poly(ADP-ribose) polymerase 1; ADP-ribosyltransferase diphtheria toxin-like 1) (from UniProt P09874 1-1014) (enzyme)”, the binding entry was “binds”.
